Source: publication PMC5510181
These are yes or no findings as the source states them, for the method shown. Binding seen in cells or lysates may run through a third protein. For some of these results: Where a sequence is shown, tags or fusion partners need not be part of it.

Tests used:
[1] = biological target: T1, SKAP1 (src kinase-associated phosphoprotein 1), endogenous in human T cells (human (endogenous in Jurkat and in human primary T cells)) (UniProt Q86WV1); test: co-IP; membrane fraction of human peripheral primary T cells ligated with plate-bound ICAM1-Fc (2 μg/ml) or ICAM1-Fc plus soluble anti-CD3 (1 μg/ml) for 5-20 min; anti-SKAP1 precipitation, blotting
T1 sequence: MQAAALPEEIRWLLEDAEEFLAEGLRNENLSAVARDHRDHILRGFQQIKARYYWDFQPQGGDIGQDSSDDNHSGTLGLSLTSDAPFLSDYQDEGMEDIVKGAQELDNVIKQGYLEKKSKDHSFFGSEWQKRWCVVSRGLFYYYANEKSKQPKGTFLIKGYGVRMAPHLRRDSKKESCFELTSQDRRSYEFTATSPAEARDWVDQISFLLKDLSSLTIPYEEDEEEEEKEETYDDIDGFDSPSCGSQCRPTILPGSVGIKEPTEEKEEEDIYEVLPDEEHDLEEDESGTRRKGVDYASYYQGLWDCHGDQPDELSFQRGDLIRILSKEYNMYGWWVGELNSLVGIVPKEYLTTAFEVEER

[2] = biological target: T1, SKAP1 (src kinase-associated phosphoprotein 1), endogenous in human T cells (human (endogenous in Jurkat and in human primary T cells)); test: co-IP; detergent lysates of Jurkat T cells ligated with anti-CD3 and/or anti-LFA-1 (5-10 min; some lysates first serially depleted with anti-SKAP1, anti-SLP-76 or anti-PLCγ1; with or without the inhibitor PF573228); precipitation with anti-SKAP1, anti-SLP-76, anti-PLCγ1 or anti-LFA-1, blotting
Flag-tagged SKAP1 = biological target: T2, Flag-tagged SKAP1 (UniProt Q86WV1); test: co-IP; 293T cells co-transfected with Flag-SKAP1 and the partner; precipitation with anti-Flag (legend; anti-SKAP1 in the text), blotting with anti-GFP or anti-Flag
T2 sequence: T1 sequence

GST-SKAP1 wild-type = biological target: T3, GST-SKAP1 wild-type (UniProt Q86WV1); test: pull-down; GST fusion proteins from E. coli incubated with lysates of Jurkat cells ligated with anti-LFA-1 for 5 min; blotting with anti-PLCγ1, anti-LAT, anti-GRB-2, anti-ADAP, anti-SLP-76 and anti-GST; only the target purified
T3 sequence: T1 sequence

[3] = biological target: T4, SKAP1 (src kinase-associated phosphoprotein 1), endogenous in murine DC27.10 T cells (mouse (endogenous in DC27.10)) (UniProt Q3UUV5); test: co-IP; membrane fraction of DC27.10 mouse T cells ligated with anti-CD3 and/or anti-LFA-1 (5 min; titration of anti-LFA-1) or plate-bound ICAM1-Fc (2 μg/ml); precipitation with anti-SKAP1 or anti-LAT, protein G-Sepharose, 4 °C, blotting
T4 sequence: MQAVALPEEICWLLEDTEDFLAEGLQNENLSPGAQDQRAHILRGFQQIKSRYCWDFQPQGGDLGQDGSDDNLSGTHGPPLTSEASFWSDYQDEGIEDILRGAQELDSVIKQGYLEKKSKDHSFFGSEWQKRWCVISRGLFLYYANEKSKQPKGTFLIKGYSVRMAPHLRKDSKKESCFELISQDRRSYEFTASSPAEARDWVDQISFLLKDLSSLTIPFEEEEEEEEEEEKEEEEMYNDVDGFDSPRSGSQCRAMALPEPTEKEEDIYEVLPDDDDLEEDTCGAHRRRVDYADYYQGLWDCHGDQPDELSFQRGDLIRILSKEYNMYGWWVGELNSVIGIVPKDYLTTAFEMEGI

B1: GADS (GRB2-related adaptor downstream of Shc), endogenous in human T cells (protein, UniProt O75791 1-330)
chain: MEAVAKFDFTASGEDELSFHTGDVLKILSNQEEWFKAELGSQEGYVPKNFIDIQFPKWFHEGLSRHQAENLLMGKEVGFFIIRASQSSPGDFSISVRHEDDVQHFKVMRDNKGNYFLWTEKFPSLNKLVDYYRTNSISRQKQIFLRDRTREDQGHRGNSLDRRSQGGPHLSGAVGEEIRPSMNRKLSDHPPTLPLQQHQHQPQPPQYAPAPQQLQQPPQQRYLQHHHFHQERRGGSLDINDGHCGTGLGSEMNAALMHRRHTDPVQLQAAGRVRWARALYDFEALEDDELGFHSGEVVEVLDSSNPSWWTGRLHNKLGLFPANYVAPMTR
binding [1]: no binding
binding [2]: no binding

B2: GADS tested with Flag-tagged SKAP1 (Supplementary Fig. 1a) (protein, UniProt O75791 1-330)
chain: B1 chain
binding (Flag-tagged SKAP1): no binding

B3: PLCγ1 tested with Flag-tagged SKAP1 (Supplementary Fig. 1a) (enzyme, UniProt P19174 1-1290)
chain: MAGAASPCANGCGPGAPSDAEVLHLCRSLEVGTVMTLFYSKKSQRPERKTFQVKLETRQITWSRGADKIEGAIDIREIKEIRPGKTSRDFDRYQEDPAFRPDQSHCFVILYGMEFRLKTLSLQATSEDEVNMWIKGLTWLMEDTLQAPTPLQIERWLRKQFYSVDRNREDRISAKDLKNMLSQVNYRVPNMRFLRERLTDLEQRSGDITYGQFAQLYRSLMYSAQKTMDLPFLEASTLRAGERPELCRVSLPEFQQFLLDYQGELWAVDRLQVQEFMLSFLRDPLREIEEPYFFLDEFVTFLFSKENSVWNSQLDAVCPDTMNNPLSHYWISSSHNTYLTGDQFSSESSLEAYARCLRMGCRCIELDCWDGPDGMPVIYHGHTLTTKIKFSDVLHTIKEHAFVASEYPVILSIEDHCSIAQQRNMAQYFKKVLGDTLLTKPVEISADGLPSPNQLKRKILIKHKKLAEGSAYEEVPTSMMYSENDISNSIKNGILYLEDPVNHEWYPHYFVLTSSKIYYSEETSSDQGNEDEEEPKEVSSSTELHSNEKWFHGKLGAGRDGRHIAERLLTEYCIETGAPDGSFLVRESETFVGDYTLSFWRNGKVQHCRIHSRQDAGTPKFFLTDNLVFDSLYDLITHYQQVPLRCNEFEMRLSEPVPQTNAHESKEWYHASLTRAQAEHMLMRVPRDGAFLVRKRNEPNSYAISFRAEGKIKHCRVQQEGQTVMLGNSEFDSLVDLISYYEKHPLYRKMKLRYPINEEALEKIGTAEPDYGALYEGRNPGFYVEANPMPTFKCAVKALFDYKAQREDELTFIKSAIIQNVEKQEGGWWRGDYGGKKQLWFPSNYVEEMVNPVALEPEREHLDENSPLGDLLRGVLDVPACQIAIRPEGKNNRLFVFSISMASVAHWSLDVAADSQEELQDWVKKIREVAQTADARLTEGKIMERRKKIALELSELVVYCRPVPFDEEKIGTERACYRDMSSFPETKAEKYVNKAKGKKFLQYNRLQLSRIYPKGQRLDSSNYDPLPMWICGSQLVALNFQTPDKPMQMNQALFMTGRHCGYVLQPSTMRDEAFDPFDKSSLRGLEPCAISIEVLGARHLPKNGRGIVCPFVEIEVAGAEYDSTKQKTEFVVDNGLNPVWPAKPFHFQISNPEFAFLRFVVYEEDMFSDQNFLAQATFPVKGLKTGYRAVPLKNNYSEDLELASLLIKIDIFPAKENGDLSPFSGTSLRERGSDASGQLFHGRAREGSFESRYQQPFEDFRISQEHLADHFDSRERRAPRRTRVNGDNRL
binding (Flag-tagged SKAP1): no binding

B4: phospholipase Cγ1 (PLCγ1), endogenous in Jurkat T cells (enzyme, UniProt P19174 1-1290)
chain: B3 chain
binding (GST-SKAP1 wild-type): no binding

B5: SLP-76 (SH2 domain containing leukocyte protein of 76kDa), endogenous in human T cells (protein, UniProt Q13094 1-533)
chain: MALRNVPFRSEVLGWDPDSLADYFKKLNYKDCEKAVKKYHIDGARFLNLTENDIQKFPKLRVPILSKLSQEINKNEERRSIFTRKPQVPRFPEETESHEEDNGGWSSFEEDDYESPNDDQDGEDDGDYESPNEEEEAPVEDDADYEPPPSNDEEALQNSILPAKPFPNSNSMYIDRPPSGKTPQQPPVPPQRPMAALPPPPAGRNHSPLPPPQTNHEEPSRSRNHKTAKLPAPSIDRSTKPPLDRSLAPFDREPFTLGKKPPFSDKPSIPAGRSLGEHLPKIQKPPLPPTTERHERSSPLPGKKPPVPKHGWGPDRRENDEDDVHQRPLPQPALLPMSSNTFPSRSTKPSPMNPLPSSHMPGAFSESNSSFPQSASLPPYFSQGPSNRPPIRAEGRNFPLPLPNKPRPPSPAEEENSLNEEWYVSYITRPEAEAALRKINQDGTFLVRDSSKKTTTNPYVLMVLYKDKVYNIQIRYQKESQVYLLGTGLRGKEDFLSVSDIIDYFRKMPLLLIDGKNRGSRYQCTLTHAAGYP
binding [1]: no binding
binding (GST-SKAP1 wild-type): no binding
binding [2]: no binding

B6: SLP-76 (SH2 domain containing leukocyte protein of 76kDa), endogenous in murine DC27.10 T cells (protein, UniProt Q60787 1-533)
chain: MALKNVPFRSEVLAWNSDNLADYFRKLNYRDCEKAVKKYHIDGARFLNLTENDIQKFPKLRMPLLSKLSQDINKNEERRSIFTRKPQIPRFLEETESHEEDDGGWSSFEDDYESPNDDDPDGEDDGDYESPNEEEQALVDDAADYEPPPSNNEEALQSSILPPNSFHNTNSMYIDRPPTGKVSQQPPVPPLRPKPALPPLPTGRNHSPLSPPHPNHEEPSRSGNNKTAKLPAPSIDRSTKPPLDRSLAPLDREPFILGKKPPFSDKPSAPLGREHLPKIQKPPLPPAMDRHERNERLGPVTTRKPPVPRHGRGPDRRENDEDDVHQRPLPQPSLPSMSSNTFPSRSVQPSSKNTFPLAHMPGAFSESNIGFQQSASLPPYFSQGPGNRPPLRSEGRNLPLPVPNRPQPPSPGEEETPLDEEWYVSYITRPEAEAALRKINQDGTFLVRDSSKKTANNPYVLMVLYKDKVYNIQIRYQEESQVYLLGTGLRGKEDFLSVSDIIDYFRKMPLLLIDGKNRGSRYQCTLTHAAGCL
binding [3]: no binding

B7: GADS (GRB2-related adaptor downstream of Shc), endogenous in murine DC27.10 T cells (protein, UniProt O89100 1-322)
chain: MEATAKFDFMASGEDELSFRTGDILKILSNQEEWLKAELGSQEGYVPKNFIDIEFPEWFHEGLSRHQAENLLMGKDIGFFIIRASQSSPGDFSISVRHEDDVQHFKVMRDTKGNYFLWTEKFPSLNKLVDYYRTTSISKQKQVFLRDGTQDQGHRGNSLDRRSQGGPHPSGTVGEEIRPSVNRKLSDHLPLGPQQFHPHQQPSPQFTPGPQPPQQQRYLQHFHQDRRGGSLDINDGHCGLGSEVNATLMHRRHTDPVQLQAAGRVRWARALYDFEALEEDELGFRSGEVVEVLDSSNPSWWTGRLHNKLGLFPANYVAPMMR
binding [3]: no binding
